Assay results taken from patent US20160303094A1, “PHARMACEUTICAL COMPOSITIONS COMPRISING ANTIBACTERIAL AGENTS” (priority 2013, published 2016).
At least one structure is not confirmed: it was looked up by name or label, or the drawing left a doubt.

System: A. baumannii S 226 strain producing CHDL Oxacillinases (OXA 51, OXA-23)
Experiment: Time-kill study: viable bacterial count in Mueller Hinton broth
Format: cell-based, Acinetobacter baumannii
Settings: used alone at 8 mcg/ml
Protocol: The antibacterial activity of compositions according to the invention against various bacterial strains was investigated. In a typical study, freshly grown cultures were diluted to required cell density (initial starting inoculum) in Mueller Hinton broth medium (BD, USA). The antibacterial agents, either alone or in combination, at required concentrations were added into the medium containing the desired initial starting inoculum. The samples were incubated under shaking condition (120 rpm) at 37° C. Enumeration of viable bacterial count was undertaken, every 2 hours, by diluting in normal saline and plating on to the Tryptic Soya Agar plates (BD, USA). The plates were incubated for 24 hours to arrive at the viable bacterial count. The antibacterial activity is expressed in terms of Colony Forming Units (CFU). The decrease of 1 Log CFU/ml, after administration of combination of present invention, in comparison to initial bacterial count corresponds to 90% killing of bacteria. Similarly, 2 Log CFU/ml reductions corresponds to 99% killing of bacteria and 3 Log CFU/ml reductions is equal to 99.9% killing of bacteria.
The combination according to invention was tested against highly resistant A. baumannii S 226 strain producing Carbapenem hydrolyzing (CHDL) Oxacillinases [OXA-51, OXA-23]. The assay without any antibacterial agent was taken as control.

## C[C@@H](O)[C@H]1C(=O)N2C(C(=O)O)=C(SCCN=CN)C[C@H]12 [Imipenem]
  decrease of the bacterial count of A. baumannii throughout the duration of the study: failed to decrease the bacterial count
